{"source": "PubChem BioAssay AID1259308 (NCATS, 2017)", "purpose": "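Knock-downs that increase output of a recombinant reporter protein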 (primary screen)", "cell system": "human HEK293 embryonic kidney cells stably expressing firefly luciferase (HEK-CMV-Luc2-Hygro)", "knock-down reagent": "single siRNA against human genes, 0.8 pmol siRNA per well", "time to read-out": "72 h", "measurement": "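Reporter luminescence and viable-cell signal on separate replicate plates, given as percent of non-targeting control and median/MAD z-scores, plus per-cell luciferase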", "scale": "total luciferase, z-score: higher = more reporter protein produced", "hit rule": "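An siRNA counts as active if its total luciferase robust z-score exceeds 3; genes with two or more such siRNAs out of three were retested with fresh siRNAs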", "calls": "active = raised luciferase; inactive = no rise", "note": "Here is an unselected part of about 59,000 reagents. About 1,510 of all reagents (2.6%) count as active. 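Calls use total luciferase alone and ignore viability, so some active siRNAs may act by altering cell number.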 The numbers tell different reagents against one gene apart. Not all columns of the deposit are shown."}
{"gene": "CIMIP7 (GeneID 646498)", "reagent": 1, "total luciferase, z-score": -1.8, "activity call": "inactive"}
{"gene": "CIMIP7 (GeneID 646498)", "reagent": 2, "total luciferase, z-score": 0.959, "activity call": "inactive"}
{"gene": "CIMIP7 (GeneID 646498)", "reagent": 3, "total luciferase, z-score": 4.05, "activity call": "active"}
{"gene": "NPAS1 (GeneID 4861)", "reagent": 1, "total luciferase, z-score": 1.55, "activity call": "inactive"}
{"gene": "NPAS1 (GeneID 4861)", "reagent": 2, "total luciferase, z-score": 0.496, "activity call": "inactive"}
{"gene": "NPAS1 (GeneID 4861)", "reagent": 3, "total luciferase, z-score": 1.77, "activity call": "inactive"}
{"gene": "IFT88 (GeneID 8100)", "reagent": 1, "total luciferase, z-score": 0.388, "activity call": "inactive"}
{"gene": "IFT88 (GeneID 8100)", "reagent": 2, "total luciferase, z-score": -0.0117, "activity call": "inactive"}
{"gene": "IFT88 (GeneID 8100)", "reagent": 3, "total luciferase, z-score": 0.0698, "activity call": "inactive"}
{"gene": "RAB3GAP2 (GeneID 25782)", "reagent": 1, "total luciferase, z-score": 0.62, "activity call": "inactive"}
{"gene": "RAB3GAP2 (GeneID 25782)", "reagent": 2, "total luciferase, z-score": 0.219, "activity call": "inactive"}
{"gene": "RAB3GAP2 (GeneID 25782)", "reagent": 3, "total luciferase, z-score": 1.02, "activity call": "inactive"}
{"gene": "CCNJL (GeneID 79616)", "reagent": 1, "total luciferase, z-score": 2.11, "activity call": "inactive"}
{"gene": "CCNJL (GeneID 79616)", "reagent": 2, "total luciferase, z-score": -1.83, "activity call": "inactive"}
{"gene": "CCNJL (GeneID 79616)", "reagent": 3, "total luciferase, z-score": -0.189, "activity call": "inactive"}
{"gene": "RNASE2 (GeneID 6036)", "reagent": 1, "total luciferase, z-score": -0.0305, "activity call": "inactive"}
{"gene": "RNASE2 (GeneID 6036)", "reagent": 2, "total luciferase, z-score": 1.35, "activity call": "inactive"}
{"gene": "RNASE2 (GeneID 6036)", "reagent": 3, "total luciferase, z-score": 2.22, "activity call": "inactive"}
{"gene": "KLHDC7B (GeneID 113730)", "reagent": 1, "total luciferase, z-score": 0.111, "activity call": "inactive"}
{"gene": "KLHDC7B (GeneID 113730)", "reagent": 2, "total luciferase, z-score": -0.000852, "activity call": "inactive"}
{"gene": "KLHDC7B (GeneID 113730)", "reagent": 3, "total luciferase, z-score": -0.0647, "activity call": "inactive"}
{"gene": "MAGEE2 (GeneID 139599)", "reagent": 1, "total luciferase, z-score": -0.409, "activity call": "inactive"}
{"gene": "MAGEE2 (GeneID 139599)", "reagent": 2, "total luciferase, z-score": 0.658, "activity call": "inactive"}
{"gene": "MAGEE2 (GeneID 139599)", "reagent": 3, "total luciferase, z-score": 1.38, "activity call": "inactive"}
{"gene": "MATCAP2 (GeneID 23366)", "reagent": 1, "total luciferase, z-score": 0.463, "activity call": "inactive"}
{"gene": "MATCAP2 (GeneID 23366)", "reagent": 2, "total luciferase, z-score": 0.298, "activity call": "inactive"}
{"gene": "MATCAP2 (GeneID 23366)", "reagent": 3, "total luciferase, z-score": 1.22, "activity call": "inactive"}
{"gene": "CTNNAL1 (GeneID 8727)", "reagent": 1, "total luciferase, z-score": -1.82, "activity call": "inactive"}
{"gene": "CTNNAL1 (GeneID 8727)", "reagent": 2, "total luciferase, z-score": 1.2, "activity call": "inactive"}
{"gene": "CTNNAL1 (GeneID 8727)", "reagent": 3, "total luciferase, z-score": 1.9, "activity call": "inactive"}
{"gene": "PDIA4 (GeneID 9601)", "reagent": 1, "total luciferase, z-score": 0.0163, "activity call": "inactive"}
{"gene": "PDIA4 (GeneID 9601)", "reagent": 2, "total luciferase, z-score": -0.106, "activity call": "inactive"}
{"gene": "PDIA4 (GeneID 9601)", "reagent": 3, "total luciferase, z-score": 1.58, "activity call": "inactive"}
